Patent US8524231
Results are given in words; binding and its absence hold for the method and conditions named. Some binding calls cover weakened binding; strength is not graded here. Sequences can lack the tags named with a protein.

The chains behind the UniProt entries cited, without tags or fusion partners. Residues count along the entry.
UniProt P01584, residues 117-269: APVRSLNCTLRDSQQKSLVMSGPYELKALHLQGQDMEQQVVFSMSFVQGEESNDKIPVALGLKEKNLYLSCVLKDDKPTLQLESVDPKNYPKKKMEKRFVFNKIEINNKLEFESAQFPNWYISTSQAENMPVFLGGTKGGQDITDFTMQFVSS

Target: biotinylated human IL-1Beta (human) (UniProt P01584)
Assay: phage ELISA: biotinylated IL-1Beta on neutravidin, crude phage, anti-M13-HRP

B1: safe variant 1F2 (phage expressing gene3-Fab fusion) (Fab, V domains shown)
VH: EVQLLESGGGLVQPGGSLRLSCAASGFTFSTYAMSWVRQAPGKGPEWVSGINTGGGSTGYADSVKGRFTISRDNSKNTLYLQMNSLRPEDTAVYYCAKDWMATTPWGQGTQVTVSS
VL: QTVVTQEPSFSVSPGGTVTLTCGLSSGSVTTNNYPGWFQQTPGQAPRTLIYNTNNRHSGVPSRFSGSILGNKAALTITGAQADDESDYYCALYMSSGSNNAVFGGGTKLTVLG
Q: With B1 as the binder, how does the binding read?
A: The binding was “binds”.
